From patent US20030096367A1
No constants are given. Whether binding was seen depends on the method and setting. Binding seen in cells or lysates may run through a third protein. Some binding calls cover weakened binding; strength is not graded here.

The chains behind the UniProt entries cited, without tags or fusion partners. Where a name states a change or a piece, a line headed by the entry shows the natural chain unless it says otherwise.
UniProt P10415: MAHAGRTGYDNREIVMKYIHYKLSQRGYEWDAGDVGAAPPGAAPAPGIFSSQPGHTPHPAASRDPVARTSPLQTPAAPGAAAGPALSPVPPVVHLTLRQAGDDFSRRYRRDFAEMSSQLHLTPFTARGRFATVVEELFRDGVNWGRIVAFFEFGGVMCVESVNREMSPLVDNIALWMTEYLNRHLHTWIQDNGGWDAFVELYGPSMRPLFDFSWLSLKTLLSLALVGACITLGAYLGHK
UniProt Q07812: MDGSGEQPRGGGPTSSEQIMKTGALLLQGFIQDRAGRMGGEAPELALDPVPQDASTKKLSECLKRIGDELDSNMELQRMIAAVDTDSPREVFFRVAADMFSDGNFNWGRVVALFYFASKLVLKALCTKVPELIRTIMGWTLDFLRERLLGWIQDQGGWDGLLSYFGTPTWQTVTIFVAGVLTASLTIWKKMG

Columns and labels:
[1] = target: wild type human Bcl-2 (human) (UniProt P10415); assay: co-immunoprecipitation with anti human Bcl-2 moAb from RL-7 lysate, different washes (FIG. 1)
[2] = target: wild type human Bcl-2 (human) (UniProt P10415); assay: co-immunoprecipitation with 6C8 moAb from 35S-methionine-labeled RL-7 cells, 0.2% NP-40 lysate, SDS-PAGE
[3] = target: wild type human Bcl-2 (human) (UniProt P10415); assay: co-immunoprecipitation from labeled RL-7 lysate with excess cold competitor lysate
[4] = target: wild type human Bcl-2 (human) (UniProt P10415); assay: co-immunoprecipitation from RL-7 cells (FIG. 1)

Measured: binding

human Bax (p21, 21 kD Bcl-2 associated protein, Bax alpha) (from UniProt Q07812 1-192)
binds: all assays above
